Source: PubChem BioAssay (NCATS)
Values joined by “and” are separate entries in the source; they are usually repeats but may differ in a detail not shown here. Equal entries are not always repeated. The list shows a part of the results. Shown are side measurements of this screen, not its main read-out; they come without a call. For part of these data: Most of these compounds were active or inconclusive in the main read-out, so they are no random draw. For part of these data: Words in brackets tell the shape of the fitted curve; partial curves, single points and poor fits give uncertain potencies.

What was measured:
[1] = Validation of Assay for Modulators of Lamin A Splicing (AID 1459); details: Lamin A splicing dual RFP/GFP fluorescence reporter, ratio
Outline: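 Readout: ratio of GFP (500-530 nm) to RFP (575-640 nm) total object intensity by 488 nm laser-scanning cytometry after 48 hrs. Cells were HeLa S3 clones carrying lamin A-EGFP minigene plus DsRed2 viability reporter; vehicle 0.5% DMSO final.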

[2] = qHTS Assay for Lipid Storage Modulators (AID 1519); details: Drosophila S3 cells, BODIPY lipid droplet/cell ratio, laser cytometry, cells loaded with oleic acid
Outline: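 Cells seeded at 5,000 per well were treated with compounds over a concentration series and loaded with oleic acid (400 uM, as added). Lipid droplet fluorescence (488 nm excitation, 500-530 nm channel) was read by laser-scanning cytometry and normalized to 20 uM Triacsin C.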

[3] = qHTS Assay for Modulators of Human Peripheral Myelin Protein 22 (PMP22) Expression/Activity (AID 1967); details: Cell-based PMP22 reporter, dual-color luciferase ratio
Outline: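 Mouse MSC80 Schwann line, Pmp22 promoter–CBG68 reporter, EF-alpha–CBR internal control. 24h compound exposure, 37 °C/5% CO2, DMEM + 10% FBS. Readout: corrected green/red luminescence ratio, normalized to untreated cells; concentration-response curves fitted and classified.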

[4] = qHTS Validation Assay to Find Inhibitors of Chronic Active B-Cell Receptor Signaling (AID 485345); details: ABC-DLBCL cells, chronic BCR signaling reporter; measured here: CBR control luciferase (viability counter)
Outline: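 TMD8 ABC-DLBCL cells with dox-inducible green luciferase–IκBα fusion and red native luciferase; compounds 46 uM–3 nM, 4 h at 37C with doxycycline in 0.5% FBS IMDM. Green/red ratio normalized to basal and 10 uM MG-132.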

[5] = Nrf2 qHTS screen for inhibitors: Validation (AID 493153); details: A549 ARE-Fluc reporter, 18-24 h; AC50: CellTiter-Fluor fluorescence read, measured here: cytotoxicity CellTiter-Fluor AC50; viability change: measured here: cytotoxicity max response
Outline: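 Dose-response validation uses reporter A549 cells with firefly luciferase under an antioxidant response element. Compounds stay on cells 18-24 h at 37°C, and luminescence indicates Nrf2-driven transcription.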

[6] = qHTS assay for small molecule antagonists of androgen receptor signaling (AID 588516); details: AR-UAS-bla HEK293, beta-lactamase ratio, antagonist mode, 16 h
Outline: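 Antagonist-mode qHTS: inhibition of R1881 (10 nM)-driven beta-lactamase expression in GripTite HEK 293 cells is measured after 16 h; values are Hill-derived IC50s normalized between R1881 and DMSO wells.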

[7] = qHTS assay for small molecule antagonists of peroxisome proliferator-activated receptor delta signaling (AID 588535); details: HEK293T PPARd-UAS-bla, beta-lactamase FRET ratio, 18 h; 460 nm channel;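 further: cells co-treated with a PPAR-delta agonist as stimulator during compound exposure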
Outline: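 GeneBLAzer PPAR-delta-UAS-bla HEK293T cells in medium with 2% charcoal/dextran FBS were preincubated 5 hrs at 37 C, then given compounds, incubated 18 hrs at 37 C, and read by CCF4 beta-lactamase fluorescence; IC50 from Hill fits.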

[8] = qHTS assay for small molecule antagonists of vitamin D receptor signaling (AID 588541); details: HEK293T VDR-UAS-bla, beta-lactamase ratio, antagonist mode; measured here: W460 blue channel (cell viability)
[9] = qHTS assay for small molecule agonists of retinoid X receptor alpha signaling (AID 588544); details: HEK293T RXRa-UAS-bla, beta-lactamase reporter, 18 h; 530 nm emission
[10] = qHTS assay for small molecule antagonists of retinoid X receptor alpha signaling (AID 588546); details: HEK293T RXRa-UAS-bla, beta-lactamase ratio, antagonist mode; measured here: W530 green channel, cytotoxicity proxy;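 further: cells stimulated with 9-cis-retinoic acid as agonist; on the % scale 0 is the no-effect control and ±100 the full control effect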
Outline: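 Beta-lactamase reporter inhibition, read as CCF4 fluorescence ratio (ex 405, em 460/530 nm) after 2 h at RT. HEK293T UAS-bla cells, 2500/well, were stimulated with 9-cis-RA at 500 or 100 nM final alongside test compound for 18 h at 37 C.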

[11] = A High-Content qHTS Against Drug Library for the Identification of Small Molecules that Inhibit DYT1 Early Onset Primary Dystonia-Associated Cell Pathology (AID 1645839); details: HEK293 Flp-In EGFP-delE TorsinA, punctate imaging, 48 h; measured here: cell count cytotoxicity
Outline: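 Readout: %pathology, the punctate EGFP-TorsinA distribution from imaging, as the primary channel and cell count as the toxicity counterscreen. HEK293 Flp-In cells expressing delE TorsinA were induced with tetracycline and treated with compound for 48 h.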

[12] = NCATS anti-infectives library activity on the primary C. elegans qHTS viability assay (AID 1745855); details: C. elegans worm area imaging, day 7, measured here: worm number
Outline: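 Viability is taken from GFP fluorescence of PE254-GFP-FLuc C. elegans imaged by laser cytometry over 7 days. Ten L1 worms per well grow at 21 °C on TOP10 E. coli capsules with titrated compound; levamisole marks toxicity.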

[13] = qHTS drug screen for cell cycle checkpoint inhibitors in PARPi-resistant BRCA-mutant ovarian cancer cell lines. (AID 1963452); details: PEO1/OlaR viability, CellTiter-Glo luminescence, 96 h
Outline: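 PEO1, PEO4 and PEO1/OlaR ovarian cancer cells, 600 per well, exposed 96 h at 37C to a dilution series. Viability read by CellTiter-Glo luminescence, normalized to DMSO and empty wells; activity summarized as Z-AUC.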

[14] = qHTS Assay for Inhibitors of PDE-IV (AID 607); details: HEK293 ACTOne CNG channel cells, membrane potential fluorescence; measured here: parental cell counter-screen
Outline: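 ACTOne HEK293 cells carry a modified cAMP-gated CNG channel and express endogenous PDE4; plated 1000 cells/well, compounds up to 22.9 uM final. Membrane-potential dye fluorescence (ex 535/em 590) was read; parental cells received 10 uM forskolin + 100 uM RO 20-1724.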

[15] = qHTS Validation Assay for Iinhibitors of HIV-1 Budding by Blocking the Interaction of PTAP/TSG101 (AID 485342); details: TSG101-PTAP binding, fluorescence polarization, 4-point titration; measured here: FITC channel readout
Outline: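 FP read-out: FITC-PTAP peptide, 50 nM final, binding Tsg101 binding domain, 10 uM final; 20 min r.t.; 10 mM HEPES pH 7.5, 0.15 M NaCl, 0.01% Tween 20, 3 mM EDTA, 0.1 mM TCEP.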

[16] = measured here: cell count channel max response
[17] = measured here: lipid channel max response
[18] = measured here: green reporter channel AC50, mouse Pmp22 promoter in mouse Schwann cells
[19] = measured here: red reporter channel AC50, EF-alpha promoter control reporter in MSC80 mouse Schwann cells
[20] = measured here: PEO1 parental viability
[21] = measured here: cell number channel AC50
[22] = measured here: lipid (BODIPY) channel AC50

With Nc1ncn([C@@H]2O[C@H](CO)[C@@H](O)[C@H]2O)c(=O)n1 the AC50 ([1]; measured here: GFP channel) was 7.94 µM [falling, partial curve], the AC50 ([1]; measured here: RFP channel) was 3.16 µM [falling, full curve] and the max response [2, 16] was 53.9%. The max response [2, 17] was 55%, the AC50 [3, 18] was 37.9 µM [falling, partial curve] and the AC50 [3, 19] was 30.1 µM [falling, partial curve]. The AC50 [4] was 3.66 µM [rising, full curve], the AC50 [5] was 4.11 µM [falling, full curve] and the viability change [5] was -37%. The AC50 ([6]; measured here: W460 blue channel fit) was 7.94 µM [falling, partial curve] and 1.41 µM [falling, full curve], the AC50 ([6]; measured here: W530 green channel, cytotoxicity/artifact) was 4.47 µM [rising, full curve] and the max response [7] was -67.7% and 5.7%. For the same compound, the AC50 [8] was 17.8 µM [falling, partial curve, poor fit], the max response [9] was 1.27% and the max response [10] was -10.8%. For the same compound, the AC50 [11] was 7.94 µM [falling, partial curve, poor fit], the AC50 [12] was 32.5 µM [falling, single point] and the AC50 [13, 20] was 17.4 µM [falling, partial curve]. The AC50 ([13]; measured here: PEO4 viability) was 11 µM [falling, partial curve].
With c1cnc(N2CCN(Cc3ccc4c(c3)OCO4)CC2)nc1 the AC50 [14] was 5.01 µM [rising, full curve], the AC50 ([1]; measured here: GFP channel) was 25.1 µM [falling, single point] and the AC50 ([1]; measured here: RFP channel) was 25.1 µM [falling, single point]. The max response [2, 16] was 76.9%, the AC50 [2, 21] was 25.1 µM [rising, partial curve] and the AC50 [2, 22] was 28.2 µM [rising, partial curve]. For the same compound, the max response [2, 17] was 106% and the AC50 [3, 19] was 26.9 µM [rising, single point].
With Cc1ccc(C(=O)Nc2ccc(S(=O)(=O)O)c3cc(S(=O)(=O)O)cc(S(=O)(=O)O)c23)cc1NC(=O)c1cccc(NC(=O)Nc2cccc(C(=O)Nc3cc(C(=O)Nc4ccc(S(=O)(=O)O)c5cc(S(=O)(=O)O)cc(S(=O)(=O)O)c45)ccc3C)c2)c1 the AC50 ([1]; measured here: GFP channel) was 2.82 µM [rising, full curve], the AC50 ([1]; measured here: RFP channel) was 3.98 µM [rising, full curve] and the max response [2, 16] was 46.1%. The max response [2, 17] was 49.1%, the AC50 [15] was 56.2 µM [falling, partial curve] and the AC50 [13, 20] was 0.003 µM [rising, full curve, poor fit].
For CC1=NS(=O)(=O)c2cc(Cl)ccc2N1, the AC50 [14] was 15.8 µM [rising, partial curve, poor fit], the AC50 ([1]; measured here: GFP channel) was 3.55 µM [falling, single point] and the AC50 ([1]; measured here: RFP channel) was 3.55 µM [falling, single point]. The max response [2, 16] was 83.2% and -17.7%, the AC50 [2, 21] was 28.2 µM [rising, partial curve, poor fit] and the AC50 [2, 22] was 31.6 µM [rising, partial curve, poor fit]. The max response [2, 17] was 113% and -18.5%.
In the case of Cc1ccc(Cl)c(Nc2ccccc2C(=O)O)c1Cl, the AC50 [14] is reported as 12.6 µM [rising, partial curve] and 5.01 µM [rising, partial curve], the AC50 ([1]; measured here: GFP channel) is reported as 35.5 µM [falling, single point] and the AC50 ([1]; measured here: RFP channel) is reported as 20 µM [falling, partial curve]. For the same compound, the AC50 [3, 19] was 95.3 µM [falling, single point], the AC50 [4] was 18.4 µM [falling, single point] and the viability change [5] was -0.981%. For the same compound, the AC50 [11] was 8.91 µM [falling, partial curve].
In the case of O=c1[nH]c2cc(Cl)c(Cl)cc2[nH]c1=O, the AC50 ([1]; measured here: GFP channel) is reported as 3.55 µM [rising, full curve, poor fit], the AC50 ([1]; measured here: RFP channel) is reported as 3.55 µM [rising, full curve, poor fit] and the max response [2, 16] is reported as 20.1%. The AC50 [2, 22] was 28.2 µM [rising, single point], the max response [2, 17] was 39.1% and the AC50 [3, 19] was 12 µM [rising, partial curve, poor fit].
For COc1ccc2c(c1)c(CC(=O)O)c(C)n2C(=O)c1ccccc1, the AC50 ([1]; measured here: GFP channel) was 6.31 µM [falling, single point], the AC50 ([1]; measured here: RFP channel) was 6.31 µM [falling, single point] and the max response [2, 16] was -37.3%. The AC50 [2, 21] was 7.94 µM [falling, full curve, poor fit], the AC50 [2, 22] was 7.94 µM [falling, full curve, poor fit] and the max response [2, 17] was -38.8%. The viability change [5] was 7.26%.
In the case of CN1CCc2cccc3c2C1Cc1ccc(O)c(O)c1-3 (stereo not given), the AC50 ([1]; measured here: GFP channel) is reported as 22.4 µM [falling, single point], the AC50 ([1]; measured here: RFP channel) is reported as 22.4 µM [falling, partial curve] and the max response [2, 16] is reported as 22.9% and 56.7%. The AC50 [2, 22] was 35.5 µM [rising, single point] and 15.8 µM [rising, partial curve, poor fit], the max response [2, 17] was 40.5% and 58.6% and the AC50 [3, 18] was 30.1 µM [falling, full curve]. For the same compound, the AC50 [3, 19] was 37.9 µM [falling, full curve].
In the case of COC(=O)[C@@H]1[C@H]2C[C@H]3c4[nH]c5ccccc5c4CCN3C[C@@H]2CC[C@@H]1O, the AC50 ([1]; measured here: GFP channel) is reported as 0.00178 µM [rising, full curve, poor fit], the AC50 ([1]; measured here: RFP channel) is reported as 3.98 µM [falling, single point] and the max response [2, 16] is reported as 15.7%. The max response [2, 17] was 16%, the AC50 [3, 18] was 33.8 µM [falling, partial curve] and the AC50 [3, 19] was 47.8 µM [falling, partial curve]. For the same compound, the AC50 [4] was 7.31 µM [falling, partial curve, poor fit] and the AC50 [11] was 11.2 µM [rising, partial curve, poor fit].
